Measurements: patent publication US20210324417A1 (RESEARCH INSTITUTE AT NATIONWIDE CHILDREN S HOSPITAL, published 2021)
No constants are given. Whether binding was seen depends on the method and setting. In cells and extracts the contact can be indirect. Some entries that bind do so weakly or less than the wild type. Sequences can lack the tags named with a protein.

Biological target: neuropilin-1 (NRP1) (mouse (endogenous protein of the mouse cell lines NSC-34 and MN1; species of NRP1 itself not stated)) (UniProt P97333)
Assay: co-immunoprecipitation with anti-NRP1 antibody from NSC-34 lysates, anti-V5 Western blot

B1: V5-tagged P234KY human GARS (enzyme, UniProt P41250-2 1-685, looked up, not shown: small tags and cut ends)
chain: MDGAGAEEVLAPLRLAVRQQGDLVRKLKEDKAPQVDVDKAVAELKARKRVLEAKELALQPKDDIVDRAKMEDTLKRRFFYDQAFAIYGGVSGLYDFGPVGCALKNNIIQTWRQHFIQEEQILEIDCTMLTPEPVLKTSGHVDKFADFMVKDVKNGECFRADHLLKAHLQKLMSDKKCSVEKKSEMESVLAQLDNYGQQELADLFVNYNVKSPITGNDLSPPVSFNLMFKTFIGKYGGNMPGYLRPETAQGIFLNFKRLLEFNQGKLPFAAAQIGNSFRNEISPRSGLIRVREFTMAEIEHFVDPSEKDHPKFQNVADLHLYLYSAKAQVSGQSARKMRLGDAVEQGVINNTVLGYFIGRIYLYLTKVGISPDKLRFRQHMENEMAHYACDCWDAESKTSYGWIEIVGCADRSCYDLSCHARATKVPLVAEKPLKEPKTVNVVQFEPSKGAIGKAYKKDAKLVMEYLAICDECYITEMEMLLNEKGEFTIETEGKTFQLTKDMINVKRFQKTLYVEEVVPNVIEPSFGLGRIMYTVFEHTFHVREGDEQRTFFSFPAVVAPFKCSVLPLSQNQEFMPFVKELSEALTRHGVSHKVDDSSGSIGRRYARTDEIGVAFGVTIDFDTVNKTPHTATLRDRDSMRQIRAEISELPSIVQDLANGNITWADVEARYPLFEGQETGKKETIEE
binding: binds
